# Data taken from PubChem BioAssay AID2517 (National Center for Advancing Translational Sciences (NCATS), 2010).
# Protein sequences, listed by entry. Tags and fused reporters are not part of them.
# UniProt P27695, whole entry, looked up: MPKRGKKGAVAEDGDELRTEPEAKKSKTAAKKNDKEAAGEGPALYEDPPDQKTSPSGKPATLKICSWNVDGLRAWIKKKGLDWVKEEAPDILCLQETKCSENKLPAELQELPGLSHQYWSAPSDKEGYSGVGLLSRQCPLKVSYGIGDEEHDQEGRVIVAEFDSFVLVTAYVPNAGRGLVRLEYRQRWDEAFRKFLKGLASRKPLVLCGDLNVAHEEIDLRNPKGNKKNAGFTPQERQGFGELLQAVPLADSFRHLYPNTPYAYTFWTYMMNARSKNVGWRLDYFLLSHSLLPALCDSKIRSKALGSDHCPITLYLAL
# Screen size: about 350,000 compounds; about 1,200 (0.34%) were called active. Inconclusive means that the source gave no clear call. Such entries were picked first, then a sample of the others. Calls come from the whole dose curve; as a rule, active = well fitted inhibition curve with a large enough effect; inconclusive = small, poorly fitted or top-dose-only effect; inactive = no such curve, though single readings can be large or run the other way. Where the call is inconclusive, the potency comes from a doubtful curve fit.
# Target: DNA repair nuclease/redox regulator APEX1 (Homo sapiens) (UniProt P27695)
# Assay: qHTS Assay for Inhibitors of the Human Apurinic/apyrimidinic Endonuclease 1 (APE1); note: nearly all actives have a fitted effect of over 55% in size
# Settings: recombinant APE1, TAMRA/BHQ-2 abasic DNA cleavage fluorescence; series mostly up to 65.8 µM
# Procedure, shortened: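 APE1 at 0.75 nM final was preincubated with compound 15 min at room temperature, then 50 nM double-stranded THF abasic-site substrate (5'-TAMRA/3'-BHQ-2) was added. Fluorescence (ex 525/em 598 nm) was read kinetically; third-minus-first read gave activity.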
# Potency is the fitted concentration of half-maximal effect.
row,SMILES,Potency
1,Cc1cc(=O)[nH]c(SCC(=O)NCc2ccco2)n1,"inconclusive: 28.2 µM [inhibitor, partial curve]"
2,CC(=O)n1cc([C@H]2C=C(C(=O)NCc3ccccc3)O[C@@H](OCc3ccc(CO)cc3)C2)c2ccccc21,"inconclusive: 3.55 µM [inhibitor, single point]"
3,CCNc1ncc2nc(-c3cc(F)cc(F)c3)c(=O)n(CCc3ccccc3)c2n1,"inconclusive: 39.8 µM [inhibitor, single point]"
4,COc1ccc(-c2nsc3c(N4CCCCC4)ncnc23)cc1,"inconclusive: 1.26 µM [inhibitor, full curve, poor fit]"
5,C/C(=N\NC(=O)COc1ccccc1-c1ccccc1)c1ccc(O)cc1O,"inconclusive: 31.6 µM [inhibitor, single point]"
6,O=C(Nc1cccc(S(=O)(=O)NC2=NCCC2)c1)c1cc(-c2ccco2)nc2ccccc12,active: 7.94 µM
7,COc1ccc(Nc2ncnc3sc(-c4ccccc4)cc23)cc1OC,"inconclusive: 44.7 µM [inhibitor, single point]"
8,COc1ccccc1NS(=O)(=O)c1cccc(C(=O)OCC(=O)Nc2cc(C)on2)c1,"inconclusive: 35.5 µM [inhibitor, single point]"
9,c1ccc2c(c1)cnc1ccccc12,"inconclusive: 12.6 µM [inhibitor, partial curve, poor fit]"
10,CCOC(=O)c1c(CSc2cccs2)n(C)c2cc(Br)c(O)c(CN(C)C)c12,"inconclusive: 31.6 µM [inhibitor, single point]"
11,CCN(CC)S(=O)(=O)c1ccc(OC)c(NC(=O)Cc2cccs2)c1,"inconclusive: 31.6 µM [inhibitor, single point]"
12,COC(=O)c1sccc1NC(=O)CSc1ccccc1NS(=O)(=O)c1ccccc1Cl,"inconclusive: 12.6 µM [inhibitor, partial curve, poor fit]"
13,COc1ccc(N2CCN(C3CCCN(C(=O)C4=C(C)OCCO4)C3)CC2)cc1 (stereo not given),"inconclusive: 33.6 µM [inhibitor, single point]"
14,CC(=O)CCn1cc([N+](=O)[O-])nc1C,"inconclusive: 8.91 µM [inhibitor, single point]"
15,CN(Cc1nc(Cc2ccccc2F)no1)Cc1cccc2ncccc12,"inconclusive: 0.0032 µM [inhibitor, full curve, poor fit]"
16,Cc1ccc(SCCNC(=O)C(CO)(CO)CO)cc1,"inconclusive: 44.7 µM [inhibitor, single point]"
17,O=C(CSCc1ccco1)NC1CCCC1,"inconclusive: 0.794 µM [inhibitor, partial curve, poor fit]"
18,O=C(O)c1cc(C(=O)O)c(C(=O)N(Cc2cccc(Oc3ccccc3)c2)[C@H]2CCCc3ccccc32)cc1C(=O)O,inactive
19,CC(=O)Oc1ccc(C(=O)OCC(=O)c2c(N)n(C)c(=O)n(C)c2=O)cc1OC(C)=O,"inconclusive: 17.8 µM [inhibitor, single point]"
20,O=C(COc1ccccc1)N1CCN=C1SCc1ccccc1F,"inconclusive: 10 µM [inhibitor, full curve, poor fit]"
21,O=C1C(Cl)=C(N2CCCCC2)C(=O)N1c1ccccc1Cl,"inconclusive: 35.5 µM [inhibitor, partial curve, poor fit]"
22,CN(Cc1ccccc1)C(=O)CSc1cc(=O)n(C)c2ccccc12,"inconclusive: 25.1 µM [inhibitor, partial curve, poor fit]"

row,SMILES,Potency
1,Nc1ccccc1NC1CCCCC1,inactive
2,Cc1ccc(-c2nc3s/c(=C\c4ccco4)c(=O)n3n2)cc1,"inconclusive: 35.5 µM [inhibitor, partial curve]"
3,O=C(CSc1n[nH]c(-c2ccncc2)n1)c1ccccc1,inactive
4,COc1cc(/C=C2\SC(=S)NC2=O)ccc1OS(=O)(=O)c1ccccc1,inactive
5,CC(C)OP(=O)(OC(C)C)C(NC(=O)c1ccccc1)C(N)=O (stereo not given),"inconclusive: 44.7 µM [inhibitor, single point]"
6,Cc1ccc(NS(=O)(=O)c2ccc3[nH]c(=O)[nH]c3c2)c(C)c1,"inconclusive: 0.316 µM [inhibitor, full curve]"
7,CC(C)CN1C(=S)SC(C)(C)C1n1oc(=O)n(-c2ccc(Cl)cc2)c1=O (stereo not given),inactive
8,NC(=O)CCC(NC(=O)c1ccc(Cl)cc1)C(=O)O (stereo not given),"inconclusive: 20 µM [inhibitor, partial curve]"
9,O=C(NNc1ccccc1)C(=O)NNS(=O)(=O)c1ccc(CCCl)cc1,"inconclusive: 10 µM [inhibitor, single point]"
10,Cc1c(NC(=S)N/N=C/c2ccc(O)cc2)c(=O)n(-c2ccccc2)n1C,inactive
11,COc1ccc(N=C2C(=Nc3ccc(OC)cc3)N(c3ccccc3)C(=S)N2C(=O)c2ccc(Cl)cc2)cc1,"inconclusive: 0.0447 µM [inhibitor, full curve, poor fit]"
12,COc1ccc(-c2nnc3c4ccccc4c(C)nn23)cc1,"inconclusive: 4.47 µM [inhibitor, single point]"
13,Cc1sc(NC(=O)C2CCCO2)c(C#N)c1C (stereo not given),"inconclusive: 22.4 µM [inhibitor, partial curve, poor fit]"
14,CCCCCCC(=O)NNC(=O)CC(=O)Nc1ccccc1C(=O)O,"inconclusive: 7.94 µM [inhibitor, single point]"
15,O=C(C=C1SCCS1)/C=C/c1ccco1,"inconclusive: 25.1 µM [inhibitor, single point]"
16,O=C1CC(c2ccco2)CC(O)=C1C=NCC1CCNCC1 (stereo not given),active: 31.6 µM
17,CCN(CC)CCCN1C=C2C(=O)C(C)(OC(=O)CCc3ccccc3)C(=O)C=C2C=C1c1ccc(C#N)cc1 (stereo not given),inactive
18,COc1ccccc1CC(Cc1nc2ccccc2[nH]1)c1nc2ccccc2[nH]1 (stereo not given),"inconclusive: 50.1 µM [inhibitor, partial curve]"
19,CO[C@H]1COC(=O)CCC[C@@H](C)[C@H](OC)COC(=O)[C@@H](C)NC(=O)C/C=C\[C@@H]1C,"inconclusive: 7.08 µM [inhibitor, single point]"
20,COc1ccc(NS(=O)(=O)c2ccc(NS(=O)(=O)c3cccc(C(=O)O)c3)cc2)cc1,"inconclusive: 4.23 µM [inhibitor, full curve, poor fit]"
21,O=C1C=C(c2ccc(C(=O)O)c(Cl)c2)C[C@@H](c2ccc3c(c2)OCO3)C1,inactive
22,Cc1ccccc1NC(=O)CN1C(=O)S/C(=C\c2ccc(-c3cc(C(=O)O)ccc3C)o2)C1=O,"inconclusive: 5.62 µM [inhibitor, full curve]"

# Laid out differently: two of the compounds above
row	SMILES	Potency
9	O=C(NNc1ccccc1)C(=O)NNS(=O)(=O)c1ccc(CCCl)cc1	inconclusive: 10 µM [inhibitor, single point]
10	Cc1c(NC(=S)N/N=C/c2ccc(O)cc2)c(=O)n(-c2ccccc2)n1C	inactive

# Next part

row,SMILES,Potency
1,CCCCCOc1ccccc1C(=O)NCCC(=O)O,"inconclusive: 0.005 µM [inhibitor, full curve, poor fit]"
2,O=C1CN(S(=O)(=O)c2cc(Br)ccc2Br)CCN1,inactive
3,O=C1c2cccc3cc([N+](=O)[O-])cc(c23)C(=O)N1/N=C/c1ccc(O)cc1O,"inconclusive: 31.6 µM [inhibitor, single point]"
4,O=C1C=C[C@@H](O)[C@H]2[C@@H]3C(=O)N(c4cccc(Oc5ccccc5)c4)C(=O)[C@@H]3CC[C@H]12,"inconclusive: 8.91 µM [inhibitor, single point]"
5,COc1cc([N+](=O)[O-])cc(/C=N/NC(=O)C(O)(c2ccccc2)c2ccccc2)c1O,inactive
6,CCCNc1c(NC(=O)c2ccc3c(c2)OCO3)c(=O)oc2ccccc12,inactive
7,CC1CCN(c2ccc(NC(=O)c3ccc([N+](=O)[O-])o3)cc2)CC1,inactive
8,COc1cc(C)c(Cl)cc1S(=O)(=O)n1ccnc1C,"inconclusive: 0.112 µM [inhibitor, full curve, poor fit]"
9,Cc1ccc(NC(=O)c2ccc(NCCc3ccccc3)c([N+](=O)[O-])c2)cc1F,inactive
10,O=C(N/N=C/c1cc(Br)c(Br)o1)c1cccnc1,inactive
11,COc1ccccc1NC(=O)CSc1nnc(C)o1,"inconclusive: 44.7 µM [inhibitor, single point]"
12,CC1CCN(c2nc3ccc(C(=O)N4CCN(Cc5ccc6c(c5)OCO6)CC4)cc3s2)CC1,"inconclusive: 39.8 µM [inhibitor, single point]"
13,COc1cc(C(=O)N/N=C(\Cc2ncc[nH]2)c2ccccc2)cc(OC)c1OC,"inconclusive: 35.5 µM [inhibitor, partial curve, poor fit]"
14,Cc1ccc(NC(=S)/C(=C(\[O-])c2ccc(Cl)s2)[n+]2cccc(CO)c2)cc1C,inactive
15,COc1ccc(C2N(S(=O)(=O)c3ccccc3)CCN2S(=O)(=O)c2ccc(C)cc2)cc1 (stereo not given),"inconclusive: 3.55 µM [inhibitor, full curve]"
16,Nc1c(S(=O)(=O)O)cc(Nc2cccc3ccccc23)c2c1C(=O)c1ccccc1C2=O,"inconclusive: 17.8 µM [inhibitor, partial curve]"
17,COC(=O)c1[nH]c2ccc(C)cc2c1NC(=O)CN1CCc2cc(OC)c(OC)cc2C1,"inconclusive: 44.7 µM [inhibitor, single point]"
18,Cn1c(N2CCC(C(N)=O)CC2)nc2c1c(=O)n(Cc1ccc(Cl)cc1)c(=O)n2C,inactive
19,O=C(O)c1ccc(N2C(=O)c3[nH]nc(-c4ccccc4)c3C2c2ccccc2)cc1 (stereo not given),"inconclusive: 35.5 µM [inhibitor, single point]"
20,Cn1c(=O)c2ncn(CC(=O)NCCOCc3ccccc3Cl)c2n(C)c1=O,"inconclusive: 0.005 µM [inhibitor, full curve, poor fit]"
21,CCN1C(=O)/C(=C/C=C2\N(CC)c3cc(S(=O)(=O)N(C)C)ccc3N2c2ccccc2)SC1=S,inactive
